The target of the assay is C-terminally TAP-tagged T. brucei SF3a60 (Trypanosoma brucei (strain Lister 427)) (UniProt Q584V9). The experiment in a line: affinity purification with mass spectrometry; tandem affinity purification of C-terminally TAP-tagged SF3a60 from procyclic T. brucei (100 ng/ml tetracycline, 24 h); 12% SDS-PAGE, SYPRO Ruby; strongly stained bands excised and identified by nano-HPLC ESI-QUAD TOF MS; TAP tag alone as control.

Sequences of proteins named here, by UniProt entry; tags and fusion partners are left off. A change or cut given only in a name is not applied to a line headed by its entry.
UniProt Q584V9: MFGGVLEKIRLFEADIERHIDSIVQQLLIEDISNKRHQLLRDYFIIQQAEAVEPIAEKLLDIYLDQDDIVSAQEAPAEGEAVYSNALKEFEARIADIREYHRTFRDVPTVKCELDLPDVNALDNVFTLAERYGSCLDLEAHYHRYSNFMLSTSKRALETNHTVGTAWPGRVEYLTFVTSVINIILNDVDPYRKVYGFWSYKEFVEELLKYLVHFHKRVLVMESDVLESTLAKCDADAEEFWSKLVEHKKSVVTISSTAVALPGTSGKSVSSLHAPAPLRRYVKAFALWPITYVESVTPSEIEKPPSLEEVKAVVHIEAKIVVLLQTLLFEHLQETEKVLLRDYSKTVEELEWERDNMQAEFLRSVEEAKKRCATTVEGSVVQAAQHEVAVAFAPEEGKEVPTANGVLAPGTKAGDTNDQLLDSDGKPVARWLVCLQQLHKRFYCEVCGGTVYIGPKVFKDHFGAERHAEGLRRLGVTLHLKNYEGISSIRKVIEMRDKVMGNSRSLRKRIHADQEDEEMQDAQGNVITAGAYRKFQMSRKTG
UniProt Q586K6: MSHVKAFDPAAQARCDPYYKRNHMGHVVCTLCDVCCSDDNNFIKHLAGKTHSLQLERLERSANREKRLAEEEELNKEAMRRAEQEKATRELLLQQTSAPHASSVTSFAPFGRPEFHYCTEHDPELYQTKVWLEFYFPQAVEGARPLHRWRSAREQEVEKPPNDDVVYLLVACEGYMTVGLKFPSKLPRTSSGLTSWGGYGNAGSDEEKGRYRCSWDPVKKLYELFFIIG
UniProt Q57WZ5: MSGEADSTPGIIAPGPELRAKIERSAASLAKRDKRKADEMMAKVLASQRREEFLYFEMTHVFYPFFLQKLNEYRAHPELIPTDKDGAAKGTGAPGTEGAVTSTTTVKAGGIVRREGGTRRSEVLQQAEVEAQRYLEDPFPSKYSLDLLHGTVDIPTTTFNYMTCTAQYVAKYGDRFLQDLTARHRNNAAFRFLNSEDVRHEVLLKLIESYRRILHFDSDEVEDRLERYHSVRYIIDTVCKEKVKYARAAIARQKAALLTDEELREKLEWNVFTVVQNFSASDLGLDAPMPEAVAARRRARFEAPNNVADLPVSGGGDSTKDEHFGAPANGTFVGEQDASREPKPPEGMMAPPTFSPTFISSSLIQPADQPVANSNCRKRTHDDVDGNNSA
UniProt Q57XR8: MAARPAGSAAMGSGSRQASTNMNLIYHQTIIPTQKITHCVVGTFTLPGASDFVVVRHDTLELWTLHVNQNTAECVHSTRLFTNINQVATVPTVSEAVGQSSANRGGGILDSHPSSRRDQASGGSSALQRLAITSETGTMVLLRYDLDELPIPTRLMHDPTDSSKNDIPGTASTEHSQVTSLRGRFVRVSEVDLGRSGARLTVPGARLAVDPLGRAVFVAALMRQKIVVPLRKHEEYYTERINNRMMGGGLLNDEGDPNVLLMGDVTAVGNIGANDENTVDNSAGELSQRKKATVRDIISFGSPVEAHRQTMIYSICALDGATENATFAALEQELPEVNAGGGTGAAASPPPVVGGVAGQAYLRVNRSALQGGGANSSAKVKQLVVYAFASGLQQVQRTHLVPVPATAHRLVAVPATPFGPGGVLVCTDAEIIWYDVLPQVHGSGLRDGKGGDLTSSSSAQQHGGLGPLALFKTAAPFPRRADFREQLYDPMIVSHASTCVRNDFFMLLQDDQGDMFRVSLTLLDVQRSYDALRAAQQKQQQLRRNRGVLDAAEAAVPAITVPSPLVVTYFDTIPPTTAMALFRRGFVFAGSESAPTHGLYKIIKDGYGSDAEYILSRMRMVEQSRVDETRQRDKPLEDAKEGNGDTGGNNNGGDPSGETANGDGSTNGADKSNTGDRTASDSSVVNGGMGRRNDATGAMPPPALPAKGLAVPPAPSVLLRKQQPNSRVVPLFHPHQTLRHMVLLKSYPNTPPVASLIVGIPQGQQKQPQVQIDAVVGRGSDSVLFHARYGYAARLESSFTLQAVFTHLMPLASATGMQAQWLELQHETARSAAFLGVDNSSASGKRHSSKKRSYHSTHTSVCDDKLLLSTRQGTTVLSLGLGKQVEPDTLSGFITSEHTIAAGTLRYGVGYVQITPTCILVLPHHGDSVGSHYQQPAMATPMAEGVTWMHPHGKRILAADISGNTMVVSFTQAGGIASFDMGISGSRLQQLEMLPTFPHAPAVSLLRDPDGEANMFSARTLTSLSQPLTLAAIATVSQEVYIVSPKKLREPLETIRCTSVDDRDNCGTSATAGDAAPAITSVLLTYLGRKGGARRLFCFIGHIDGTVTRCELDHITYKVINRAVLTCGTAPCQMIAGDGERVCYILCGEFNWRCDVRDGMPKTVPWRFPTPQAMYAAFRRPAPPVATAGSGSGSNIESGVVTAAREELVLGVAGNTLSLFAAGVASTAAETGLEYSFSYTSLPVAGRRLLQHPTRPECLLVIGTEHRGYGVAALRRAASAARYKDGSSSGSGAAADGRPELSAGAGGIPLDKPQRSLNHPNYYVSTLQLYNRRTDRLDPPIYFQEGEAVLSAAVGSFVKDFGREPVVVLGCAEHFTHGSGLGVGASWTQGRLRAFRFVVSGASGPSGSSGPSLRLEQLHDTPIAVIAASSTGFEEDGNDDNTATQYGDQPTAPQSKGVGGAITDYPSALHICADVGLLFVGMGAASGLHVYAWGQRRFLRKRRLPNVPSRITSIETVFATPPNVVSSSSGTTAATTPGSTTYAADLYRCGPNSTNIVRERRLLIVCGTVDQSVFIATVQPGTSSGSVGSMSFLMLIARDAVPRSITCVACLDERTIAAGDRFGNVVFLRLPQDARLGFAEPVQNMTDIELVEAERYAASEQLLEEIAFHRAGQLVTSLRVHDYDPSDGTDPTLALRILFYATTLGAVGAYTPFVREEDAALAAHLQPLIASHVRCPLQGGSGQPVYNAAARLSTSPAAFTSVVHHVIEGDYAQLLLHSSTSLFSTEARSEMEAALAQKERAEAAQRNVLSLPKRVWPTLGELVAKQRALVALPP

Results are given in words; binding and its absence hold for the method and conditions named. Binding seen in cells or lysates may run through a third protein. A yes stands for co-enrichment or nearness to the bait. Other partners may have been found.

Turning to “T. brucei SF3a66 (Tb927.2.2270) (from UniProt Q586K6)”, the binding result is “binds”. Consider “T. brucei SF3a120 (Tb927.3.1140) (from UniProt Q57WZ5)”, for which the binding entry is “binds”.

As to “T. brucei SF3b130 (Tb927.7.6980) (from UniProt Q57XR8)”, the binding result was “binds”.

The record behind these values is publication PMC3961280.
